Data from PMC8281802, “Bacterial Vipp1 and PspA are members of the ancient ESCRT-III membrane-remodeling superfamily” (Cell, 2021).
No constants are given. Whether binding was seen depends on the method and setting. Some results given as binding are weak or reduced against the parent protein; the word gives no strength.

Molecular target: Vipp1_(F197K/L200K) (Nostoc punctiforme) (UniProt B2J6D9)
Assay: negative stain EM; purified protein imaged by negative stain EM; rings, ring stacks, filaments and ribbons seen; both purified

binding: binds weakly
B1: Vipp1_(F197K/L200K) (protein, UniProt B2J6D9 1-258)
chain: MGLFDRIKRVVSSNLNDLVNKAEDPEKMLEQAILEMQEDLVQLRQGVAQAIAAQKRSEKQYNDAQNEINKWQRNAQLALQKGDENLARQALERKKTYTDTSAALKASLDTQSTQVETLKRNLIQLESKISEAKTKKEMLKARITTAKAQEQLQGMVRGMNTSSAMSAFERMEEKVLMQESRAQALGELAGADLETQKAQKEGGSDVDDELAALKAQMLPPATPVTQAQLPPQQETTPAKSNEVVDAELDSLRKQLDQL
